Experimental data taken from paper PMC13411647.
These are yes or no findings as the source states them, for the method shown. Binding seen in cells or lysates may run through a third protein. Some results given as binding are weak or reduced against the parent protein; the word gives no strength.

By UniProt entry, the sequences of proteins in these tests, tags left out.
UniProt Q14789: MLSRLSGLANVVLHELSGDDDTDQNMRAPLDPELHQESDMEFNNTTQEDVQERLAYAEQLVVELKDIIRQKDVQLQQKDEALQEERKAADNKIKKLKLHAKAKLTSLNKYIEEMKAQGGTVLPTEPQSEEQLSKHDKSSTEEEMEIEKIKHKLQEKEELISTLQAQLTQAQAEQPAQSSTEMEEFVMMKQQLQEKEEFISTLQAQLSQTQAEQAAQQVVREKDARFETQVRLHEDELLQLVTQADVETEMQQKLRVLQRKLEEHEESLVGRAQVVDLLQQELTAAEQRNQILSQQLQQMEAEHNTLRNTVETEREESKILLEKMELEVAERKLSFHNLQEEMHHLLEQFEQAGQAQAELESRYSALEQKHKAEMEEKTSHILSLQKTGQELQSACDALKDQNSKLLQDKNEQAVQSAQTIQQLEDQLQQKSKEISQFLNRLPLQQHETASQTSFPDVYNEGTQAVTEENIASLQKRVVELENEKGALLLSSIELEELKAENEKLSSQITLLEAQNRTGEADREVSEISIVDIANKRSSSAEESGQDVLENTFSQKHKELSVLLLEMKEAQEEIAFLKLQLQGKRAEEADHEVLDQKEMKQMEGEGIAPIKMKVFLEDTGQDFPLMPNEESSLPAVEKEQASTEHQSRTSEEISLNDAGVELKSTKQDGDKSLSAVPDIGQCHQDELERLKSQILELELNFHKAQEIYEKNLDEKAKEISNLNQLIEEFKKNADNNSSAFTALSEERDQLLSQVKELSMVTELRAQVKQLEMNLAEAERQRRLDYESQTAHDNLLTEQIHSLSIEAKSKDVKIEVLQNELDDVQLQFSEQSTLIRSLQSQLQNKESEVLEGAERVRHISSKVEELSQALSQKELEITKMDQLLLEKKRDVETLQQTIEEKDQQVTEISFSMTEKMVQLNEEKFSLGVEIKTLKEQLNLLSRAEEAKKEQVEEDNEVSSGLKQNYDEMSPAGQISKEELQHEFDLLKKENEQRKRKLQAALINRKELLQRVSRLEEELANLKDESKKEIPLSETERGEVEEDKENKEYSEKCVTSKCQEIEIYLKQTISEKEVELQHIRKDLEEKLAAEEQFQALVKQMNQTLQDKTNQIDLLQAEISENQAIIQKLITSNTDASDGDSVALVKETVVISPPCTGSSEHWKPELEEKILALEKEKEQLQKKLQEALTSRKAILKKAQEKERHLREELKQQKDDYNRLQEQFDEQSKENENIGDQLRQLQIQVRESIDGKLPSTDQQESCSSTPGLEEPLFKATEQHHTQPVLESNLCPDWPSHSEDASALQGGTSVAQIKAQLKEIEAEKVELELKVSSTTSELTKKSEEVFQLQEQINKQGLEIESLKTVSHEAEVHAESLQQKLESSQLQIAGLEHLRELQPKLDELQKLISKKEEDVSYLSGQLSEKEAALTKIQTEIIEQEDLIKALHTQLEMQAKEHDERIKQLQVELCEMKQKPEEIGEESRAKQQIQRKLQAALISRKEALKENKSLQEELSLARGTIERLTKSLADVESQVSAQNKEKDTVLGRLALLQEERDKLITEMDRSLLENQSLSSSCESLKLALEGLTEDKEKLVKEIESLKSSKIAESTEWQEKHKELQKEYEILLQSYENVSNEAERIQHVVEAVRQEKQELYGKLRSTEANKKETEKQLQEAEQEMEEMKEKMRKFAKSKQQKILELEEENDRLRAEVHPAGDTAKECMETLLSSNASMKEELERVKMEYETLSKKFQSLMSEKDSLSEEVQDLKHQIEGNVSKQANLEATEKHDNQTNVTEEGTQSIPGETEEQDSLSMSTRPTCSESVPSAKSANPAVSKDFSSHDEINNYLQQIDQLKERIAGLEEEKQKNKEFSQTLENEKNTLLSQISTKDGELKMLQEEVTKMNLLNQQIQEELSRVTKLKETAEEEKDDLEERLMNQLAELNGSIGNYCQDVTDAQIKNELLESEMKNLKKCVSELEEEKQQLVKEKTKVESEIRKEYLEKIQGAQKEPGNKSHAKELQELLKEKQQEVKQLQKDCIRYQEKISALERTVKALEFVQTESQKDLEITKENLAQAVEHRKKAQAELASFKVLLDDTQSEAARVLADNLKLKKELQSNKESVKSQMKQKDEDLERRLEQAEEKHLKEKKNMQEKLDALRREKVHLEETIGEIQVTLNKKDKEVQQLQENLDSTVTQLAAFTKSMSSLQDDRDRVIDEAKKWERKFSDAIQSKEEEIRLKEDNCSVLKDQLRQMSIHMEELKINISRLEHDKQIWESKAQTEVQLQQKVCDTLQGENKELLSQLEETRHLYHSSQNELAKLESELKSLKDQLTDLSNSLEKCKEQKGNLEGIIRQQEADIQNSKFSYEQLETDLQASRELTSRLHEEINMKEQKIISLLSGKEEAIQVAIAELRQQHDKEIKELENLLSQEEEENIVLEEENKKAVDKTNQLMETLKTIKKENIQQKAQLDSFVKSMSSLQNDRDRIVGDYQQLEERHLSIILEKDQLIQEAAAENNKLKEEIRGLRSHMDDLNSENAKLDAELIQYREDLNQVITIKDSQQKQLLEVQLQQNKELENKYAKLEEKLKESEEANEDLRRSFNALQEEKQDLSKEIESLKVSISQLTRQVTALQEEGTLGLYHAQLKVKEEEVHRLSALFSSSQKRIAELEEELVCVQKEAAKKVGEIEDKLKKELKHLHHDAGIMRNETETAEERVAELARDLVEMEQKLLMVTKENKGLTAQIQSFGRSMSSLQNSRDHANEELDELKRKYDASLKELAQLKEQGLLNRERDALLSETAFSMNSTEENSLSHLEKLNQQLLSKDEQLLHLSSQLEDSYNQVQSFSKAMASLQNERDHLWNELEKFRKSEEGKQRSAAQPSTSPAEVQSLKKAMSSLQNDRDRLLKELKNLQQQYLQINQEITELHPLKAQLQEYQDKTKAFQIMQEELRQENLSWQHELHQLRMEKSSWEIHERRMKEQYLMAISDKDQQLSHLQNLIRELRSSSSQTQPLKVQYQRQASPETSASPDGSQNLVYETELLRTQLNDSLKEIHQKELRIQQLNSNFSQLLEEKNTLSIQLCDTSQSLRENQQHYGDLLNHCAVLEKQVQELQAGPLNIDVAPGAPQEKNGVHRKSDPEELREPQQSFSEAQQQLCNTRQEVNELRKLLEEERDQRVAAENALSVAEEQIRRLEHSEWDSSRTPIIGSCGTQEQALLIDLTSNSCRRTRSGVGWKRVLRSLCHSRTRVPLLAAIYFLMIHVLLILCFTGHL

How the values were obtained:
[1] = target: T1, RAD51C (human (endogenous in HeLa-K)) (UniProt O43502); test: condition: only cells treated with DOX (40 μM, 3 h); co-IP; as a1, but HeLa-K cells treated with DOX alone (DSB induction) before lysis
T1 sequence: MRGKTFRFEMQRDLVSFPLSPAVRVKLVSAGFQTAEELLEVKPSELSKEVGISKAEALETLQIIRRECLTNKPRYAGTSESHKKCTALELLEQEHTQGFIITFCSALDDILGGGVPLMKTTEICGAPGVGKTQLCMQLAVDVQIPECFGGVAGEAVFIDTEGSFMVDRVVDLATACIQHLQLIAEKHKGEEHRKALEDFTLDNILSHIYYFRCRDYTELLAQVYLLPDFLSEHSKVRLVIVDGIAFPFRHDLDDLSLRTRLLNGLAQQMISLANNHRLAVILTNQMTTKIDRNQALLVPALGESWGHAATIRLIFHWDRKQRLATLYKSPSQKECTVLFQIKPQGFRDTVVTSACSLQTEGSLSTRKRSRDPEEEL

[2] = target: T1, RAD51C (human (endogenous in HeLa-K)); test: co-IP; endogenous proteins in HeLa-K extracts; lysis buffer 50 mM HEPES, 130 mM NaCl, 1 mM DTT, 1% NP-40; primary antibody overnight at 4°C, Protein G-agarose beads 4 h at 4°C; control conditions, and DOX with co-treatment with ATM inhibitor (KU55933) or IPZ

giantin (GOLGB1) (from UniProt Q14789 1-3259)
binding [1]: no binding | binding [2]: binds
